For one substance, binding results are on record in publication PMC11182588.

The chains behind the UniProt entries cited, without tags or fusion partners. Where a name states a change or a piece, a line headed by the entry shows the natural chain unless it says otherwise.
UniProt A0A3B6DLT0: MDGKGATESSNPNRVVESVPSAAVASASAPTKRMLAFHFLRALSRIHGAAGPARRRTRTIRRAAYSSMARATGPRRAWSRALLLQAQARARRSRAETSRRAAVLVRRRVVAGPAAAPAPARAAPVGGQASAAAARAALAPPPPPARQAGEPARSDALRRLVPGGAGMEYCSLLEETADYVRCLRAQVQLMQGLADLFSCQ

This test concerns the target GST-TaSnRK1α1 (wheat (Triticum aestivum, cDNA of Chinese Spring)). As to the kind of experiment: pull-down; GST-TaSnRK1α1 (1 μg) on glutathione agarose beads incubated with MBP-TabHLH489 (1 μg) or MBP (1 μg) at 4 °C for 1 h; beads washed six times; immunoblot with anti-MBP; both purified. (Immunoblotting shows a protein as a band on a membrane.)

These are yes or no findings as the source states them, for the method shown. Binding can be weak; no strength is given.

In the case of MBP-TabHLH489 (from UniProt A0A3B6DLT0), the binding entry is listed as “binds”.
